What all share (experiment): two-hybrid
Assay [1] has as its target T1, arginine/serine-rich zinc knuckle-containing protein 32 (RS2Z32), native full-length, yeast two-hybrid bait (Arabidopsis thaliana) (UniProt Q9FYB7).
T1 sequence: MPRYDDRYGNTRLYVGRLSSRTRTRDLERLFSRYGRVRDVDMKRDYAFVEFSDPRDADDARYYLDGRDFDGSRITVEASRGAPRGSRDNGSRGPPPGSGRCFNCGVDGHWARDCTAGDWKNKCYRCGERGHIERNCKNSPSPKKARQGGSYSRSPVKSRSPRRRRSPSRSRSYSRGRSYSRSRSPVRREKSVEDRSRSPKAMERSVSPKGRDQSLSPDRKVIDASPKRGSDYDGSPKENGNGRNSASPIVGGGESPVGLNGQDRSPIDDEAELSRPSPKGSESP

Assay [2] has as its target T2, arginine/serine-rich zinc knuckle-containing protein 33 (RS2Z33), native full-length, yeast two-hybrid bait (Arabidopsis thaliana) (UniProt Q8VYA5).
T2 sequence: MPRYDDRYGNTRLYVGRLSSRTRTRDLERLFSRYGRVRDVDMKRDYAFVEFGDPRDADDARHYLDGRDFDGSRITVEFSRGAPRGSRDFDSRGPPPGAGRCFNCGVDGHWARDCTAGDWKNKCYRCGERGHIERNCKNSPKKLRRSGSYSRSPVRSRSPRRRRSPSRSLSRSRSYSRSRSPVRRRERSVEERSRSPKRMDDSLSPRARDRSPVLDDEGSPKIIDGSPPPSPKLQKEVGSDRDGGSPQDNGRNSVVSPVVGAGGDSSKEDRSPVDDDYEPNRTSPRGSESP

Assay [3] concerns the target RS2Z33mutZnKs (Arabidopsis thaliana) (UniProt Q8VYA5).
Assay [4] concerns the target RS2Z32mutSP (Arabidopsis thaliana) (UniProt Q9FYB7).
Assay [5] deals with RS2Z32mutZnKs (Arabidopsis thaliana) (UniProt Q9FYB7).
Assay [6] concerns the target RS2Z32mutRS (Arabidopsis thaliana) (UniProt Q9FYB7).
For assay [7], the target named is RS2Z33mutSP (Arabidopsis thaliana) (UniProt Q8VYA5).
For assay [8], the target named is RS2Z33mutRS (Arabidopsis thaliana) (UniProt Q8VYA5).
Assay [9] deals with RS2Z32mutRRM+ZnKs (Arabidopsis thaliana) (UniProt Q9FYB7).
Assay [10] concerns the target RS2Z33mutRRM+ZnKs (Arabidopsis thaliana) (UniProt Q8VYA5).

These are yes or no findings as the source states them, for the method shown. For part of these data: Binding can be weak; no strength is given.

Binding data for 13 molecules are collected here from publication doi:10.1101/2024.09.04.610270.

Take PININ (Arabidopsis thaliana): the binding result in assay [1] and in assay [2] was “no binding” throughout.

SRPK3a (Arabidopsis thaliana) (enzyme): the binding result in [1] and in assay [2] was “binds” each time.

For SRPK1 (Arabidopsis thaliana) (enzyme), the binding result in [1] and in assay [2] was “no binding” throughout.

As for SRPK4 (Arabidopsis thaliana) (enzyme), the binding entry in [1] and in assay [2] was “binds” each time.

Consider “SR45mutRS1+RS2, yeast two-hybrid (from UniProt Q9SEE9-1)”, for which the binding result in [1] and in assay [2] was “no binding” throughout.

On to SRPK2 (Arabidopsis thaliana) (enzyme), for which the binding entry in assay [1] and in assay [2] was “no binding” in each case.

On to SRPK3b (Arabidopsis thaliana) (enzyme), for which the binding entry in assay [1] and in assay [2] was “binds” in each case.

Consider ACINUS (Arabidopsis thaliana), for which the binding entry in assay [1] and in assay [2] was “no binding” throughout.

B1: Cyp59 (protein, UniProt Q6Q151 1-506)
chain: MSVLIVTSLGDIVIDLHSDKCPLTCKNFLKLCKIKYYNGCLFHTVQKDFTAQTGDPTGTGAGGDSIYKFLYGEQARFYKDEIHLDLKHSKTGTVAMASGGENLNASQFYFTLRDDLDYLDGKHTVFGQIAEGFDTLTRINEAYVDPKNRPYKNIRIKHTHILDDPFDDPPQLAEMMPDASPEGKPKEEVKDDVRLEDDWVPMDEELGAQELEEVIREKAAHSSAVVLESIGDIPEAEVKPPDNVLFVCKLNPVTEDEDLHTIFSRFGTVVSADVIRDFKTGDSLCYAFIEFENKESCEQAYFKMDNALIDDRRIHVDFSQSVSKLWSQFRQKDSQKGKGNGCFKCGSTDHIAKDCVGGPSSKFIVKDQNRQHGGGEGYEMVFEGDVHETPKHNSHERERSEKIQRRSPHGNGEGKRQHRDERDDGRRQHDREDARELERKHRERKERESREDEDRRRRRRREESRDKESRRERDEDDHRSHRDYKERRRERDDRHGREARHERRDR
In the case of B1, the binding result is given as “binds” in [3]; “binds” in assay [4]; “binds” in assay [5]; “no binding” in assay [6]; “binds” in [7]; “no binding” in assay [8].

B2: SCL30 (protein, UniProt Q8L3X8 1-262)
chain: MRRYSPPYYSPPRRGYGGRGRSPPPPPPRRGYGGGGGGGGRRGSSHGSLLVRNIPLDCRPEELREPFERFGPVRDVYIPRDYYSGQPRGFAFVEFVDAYDAGEAQRSMNRRSFAGREITVVVASESRKRPEEMRVKTRTRSREPSGSRDRSHGRSRSRSISRSRSPRRPSDSRSRYRSRSYSPAPRRRGGPPRGEEDENYSRRSYSPGYEGAAAAAPDRDRNGDNEIREKPGYEAEDRRRGGRAVSRSPSGSRSRSVEVSPR
On to B2, for which the binding result was “binds” in assay [3], “binds” in assay [5], “no binding” in assay [6] and “no binding” in assay [8].

B3: SR45.2 (protein, UniProt Q9SEE9-2 1-407)
chain: MAKPSRGRRSPSVSGSSSRSSSRSRSGSSPSRSISRSRSRSRSLSSSSSPSRSVSSGSRSPPRRGKSPAGPARRGRSPPPPPSKGASSPSKKAVQESLVLHVDSLSRNVNEAHLKEIFGNFGEVIHVEIAMDRAVNLPRGHGYVEFKARADAEKAQLYMDGAQIDGKVVKATFTLPPRQKVSSPPKPVSAAPKRDAPKSDNAAADAEKDGGPRRPRERLSPRRRSPLPRRGLSPRRRSPDSPHRRRPGSPIRRRGDTPPRRRPASPSRGRSPSSPPPRRYRSPPRGSPRRIRGSPVRRRSPLPLRRRSPPPRRLRSPPRRSPIRRRSRSPIRRPGRSRSSSISPRKGRGPAGRRGRSSSYSSSPSPRRIPRKISRSRSPKRPLRGKRSSSNSSSSSSPPPPPPPRKT
Take B3: the binding entry in assay [9], in assay [6], in assay [10] and in assay [8] was “no binding” each time.

B4: MOS14 (protein, UniProt Q8GUL2 1-958)
chain: MEHQNAVKEALNALYHHPDDTVRVHADRWLQNFQGTLDAWQVADNLLHDSSSNLETLIFCSQTLRSKVQRDFEELPPGAFQKLRQSLTTLLKKFHKGPPKVRTQISIAVAALAVHVPAADWGDGGIISWLRDEMHMHPEYVPGFLELLTVLPEETFNYKIAARPDRRRQFEKELTSQMEAALSILSACLKISELKEQVLEAFASWLRLRHGIPGTVLACHPLVHAALSSLNCDPLSEASVNVISELIHHTASPSSGGISAQTPLIQVIVPQILSLQAHLRDSSKDEEDVKAIGRLFADVGDSYVELIATGSDEPMVIVHALLEVTAHPEFDIASMTFNFWHSLQLMLTKRESYSSLGSEASIEVERNRRLHIFQPAYQSLVSLVGFRVQYPEDYQGLSYEDLKEFKQTRYAVADVLIDAALILGGDTTLKILYMKLLEANAQTGNNFQDWRPAEAILFCIWAISNYVSVVEAEVMPQVMALLQNLPQQAQLLQTACLLVGAYSKWLNAAPASVSILPSIIRILMSGMGTSEDCAAAAALAFRHTCDDCRKNLCGYFEDLFNIYCMAINGGGGYKVSAEDSLNLVEALGMVVTELPLDQAKGALEKLCFSAASPLEEAAKEDLEKKHARELTVHIDRFAFLFRYVNHPEAVAAEINKHWAIFRVIFDARPWDMRTMESLCRACKYAVRTSGRYIIDTIGEMLEKIQFHYQQHHQPCFLYLSSEVIKIFGSDPSCAVYLKNLIETLFAHTTCLMTSIKEVTARPDIADDCFLLASRCLRYCPHLFIPSPIFPALVNCAMIGITVQHREACHSILTFLTDIFDLEKSVNEEQFVRIRDNIIIPRGATITRILIASLAGALPSSRLDTVTYSLLALTRTYRLQAVSWAKESVSLIPRTALTETESTKFLQALSDIAYGADVNSLIGQVEELSDVCRRNRTVQELVQAALKPLELNLVTAPVS
In the case of B4, the binding entry in assay [6] and in assay [8] was “no binding” each time.

B5: SR45.1 (protein, UniProt Q9SEE9-1 1-414)
chain: MAKPSRGRRSPSVSGSSSRSSSRSRSGSSPSRSISRSRSRSRSLSSSSSPSRSVSSGSRSPPRRGKSPAGPARRGRSPPPPPSKGASSPSKKAVQESLVLHVDSLSRNVNEAHLKEIFGNFGEVIHVEIAMDRAVNLPRGHGYVEFKARADAEKAQLYMDGAQIDGKVVKATFTLPPRQKVSSPPKPVSAAPKRDAPKSDNAAADAEKDGGPRRPRETSPQRKTGLSPRRRSPLPRRGLSPRRRSPDSPHRRRPGSPIRRRGDTPPRRRPASPSRGRSPSSPPPRRYRSPPRGSPRRIRGSPVRRRSPLPLRRRSPPPRRLRSPPRRSPIRRRSRSPIRRPGRSRSSSISPRKGRGPAGRRGRSSSYSSSPSPRRIPRKISRSRSPKRPLRGKRSSSNSSSSSSPPPPPPPRKT
For B5, the binding entry in assay [9] was “binds”; in [6], “no binding”; in assay [10], “binds”; in assay [8], “no binding”.
